Assay results: the supplement of paper PMC12823440, “Inhibitors supercharge kinase turnover through native proteolytic circuits” (Nature, 2025)
Where a name gives a salt, the structure may show the parent alone. This is one part of the list. Hit calls seldom repeat between salt and free forms of one compound.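 In K562 cells expressing nanoluciferase-fused kinases, luminescence was recorded at 4 h intervals between 2 and 18 h, normalized as percent of control with DMSO at 100% and a positive control at 0%. A significant (2 sigma) signal drop marks a time point as decreased. The authors' rule for a hit is not shown and takes in more than the number of time points.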

Protein sequences, listed by entry. Tags and fused reporters are not part of them. Lines headed by an entry give the natural chain unless they say otherwise; changes in a name come on top.
UniProt P21860, whole entry: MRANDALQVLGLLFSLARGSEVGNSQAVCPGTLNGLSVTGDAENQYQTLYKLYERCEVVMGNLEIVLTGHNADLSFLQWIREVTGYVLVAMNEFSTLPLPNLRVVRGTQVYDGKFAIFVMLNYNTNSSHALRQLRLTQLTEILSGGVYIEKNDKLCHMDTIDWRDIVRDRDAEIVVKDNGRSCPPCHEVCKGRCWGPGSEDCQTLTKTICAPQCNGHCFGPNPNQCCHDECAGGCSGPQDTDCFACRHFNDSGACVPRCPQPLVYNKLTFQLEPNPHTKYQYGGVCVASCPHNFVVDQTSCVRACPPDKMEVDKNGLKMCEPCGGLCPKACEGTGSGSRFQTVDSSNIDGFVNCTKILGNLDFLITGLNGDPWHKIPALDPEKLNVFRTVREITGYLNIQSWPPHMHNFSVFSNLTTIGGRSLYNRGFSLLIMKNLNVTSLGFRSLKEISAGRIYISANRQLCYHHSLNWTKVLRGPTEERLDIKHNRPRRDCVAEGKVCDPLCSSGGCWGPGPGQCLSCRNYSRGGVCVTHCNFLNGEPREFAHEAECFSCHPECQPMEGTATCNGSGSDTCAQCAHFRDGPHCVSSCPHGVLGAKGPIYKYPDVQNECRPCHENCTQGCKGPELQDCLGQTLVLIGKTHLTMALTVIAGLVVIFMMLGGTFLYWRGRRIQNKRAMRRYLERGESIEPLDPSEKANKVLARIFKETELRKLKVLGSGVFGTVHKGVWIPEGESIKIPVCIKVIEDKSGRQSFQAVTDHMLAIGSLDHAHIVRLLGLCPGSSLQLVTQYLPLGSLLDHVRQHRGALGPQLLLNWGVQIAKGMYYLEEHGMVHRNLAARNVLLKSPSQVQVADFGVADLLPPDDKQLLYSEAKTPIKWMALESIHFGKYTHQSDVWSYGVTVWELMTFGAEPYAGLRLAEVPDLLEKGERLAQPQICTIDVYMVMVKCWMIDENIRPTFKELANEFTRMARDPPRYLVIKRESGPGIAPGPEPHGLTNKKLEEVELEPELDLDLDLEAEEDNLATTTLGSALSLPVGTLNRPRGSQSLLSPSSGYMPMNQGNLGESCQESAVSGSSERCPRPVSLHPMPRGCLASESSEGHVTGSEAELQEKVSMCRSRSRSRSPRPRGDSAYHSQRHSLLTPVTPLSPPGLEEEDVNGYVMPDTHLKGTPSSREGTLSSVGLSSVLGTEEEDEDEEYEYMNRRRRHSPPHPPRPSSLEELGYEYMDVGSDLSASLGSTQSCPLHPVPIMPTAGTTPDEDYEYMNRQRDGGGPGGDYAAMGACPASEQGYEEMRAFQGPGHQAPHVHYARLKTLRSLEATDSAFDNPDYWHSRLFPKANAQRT
UniProt O75460: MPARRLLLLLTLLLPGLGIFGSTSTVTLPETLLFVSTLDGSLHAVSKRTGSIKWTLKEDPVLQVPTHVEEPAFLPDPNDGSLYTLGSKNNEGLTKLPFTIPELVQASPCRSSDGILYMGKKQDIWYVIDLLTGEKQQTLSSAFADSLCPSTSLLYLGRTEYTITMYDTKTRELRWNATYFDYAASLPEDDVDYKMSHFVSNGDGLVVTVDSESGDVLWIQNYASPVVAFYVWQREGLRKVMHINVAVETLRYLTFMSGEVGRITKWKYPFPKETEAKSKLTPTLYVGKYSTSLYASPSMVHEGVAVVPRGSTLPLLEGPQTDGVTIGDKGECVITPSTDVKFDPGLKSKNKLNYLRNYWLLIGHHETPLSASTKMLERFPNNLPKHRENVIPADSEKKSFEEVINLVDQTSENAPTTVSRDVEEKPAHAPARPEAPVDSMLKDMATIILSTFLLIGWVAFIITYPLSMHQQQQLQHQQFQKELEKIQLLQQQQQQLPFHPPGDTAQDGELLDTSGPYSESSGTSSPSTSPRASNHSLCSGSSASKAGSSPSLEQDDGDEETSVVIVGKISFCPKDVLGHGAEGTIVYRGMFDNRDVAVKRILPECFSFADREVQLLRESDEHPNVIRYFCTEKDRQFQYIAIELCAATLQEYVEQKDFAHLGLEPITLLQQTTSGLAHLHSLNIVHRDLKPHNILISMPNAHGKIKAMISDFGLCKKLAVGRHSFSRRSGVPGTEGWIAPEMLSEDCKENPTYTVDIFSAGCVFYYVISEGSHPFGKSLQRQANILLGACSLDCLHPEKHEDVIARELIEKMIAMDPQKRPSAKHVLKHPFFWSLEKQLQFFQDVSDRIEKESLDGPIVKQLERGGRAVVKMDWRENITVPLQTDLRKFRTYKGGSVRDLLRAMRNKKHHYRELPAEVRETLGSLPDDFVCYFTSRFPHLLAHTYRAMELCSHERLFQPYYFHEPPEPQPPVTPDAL
UniProt P11362, whole entry, looked up: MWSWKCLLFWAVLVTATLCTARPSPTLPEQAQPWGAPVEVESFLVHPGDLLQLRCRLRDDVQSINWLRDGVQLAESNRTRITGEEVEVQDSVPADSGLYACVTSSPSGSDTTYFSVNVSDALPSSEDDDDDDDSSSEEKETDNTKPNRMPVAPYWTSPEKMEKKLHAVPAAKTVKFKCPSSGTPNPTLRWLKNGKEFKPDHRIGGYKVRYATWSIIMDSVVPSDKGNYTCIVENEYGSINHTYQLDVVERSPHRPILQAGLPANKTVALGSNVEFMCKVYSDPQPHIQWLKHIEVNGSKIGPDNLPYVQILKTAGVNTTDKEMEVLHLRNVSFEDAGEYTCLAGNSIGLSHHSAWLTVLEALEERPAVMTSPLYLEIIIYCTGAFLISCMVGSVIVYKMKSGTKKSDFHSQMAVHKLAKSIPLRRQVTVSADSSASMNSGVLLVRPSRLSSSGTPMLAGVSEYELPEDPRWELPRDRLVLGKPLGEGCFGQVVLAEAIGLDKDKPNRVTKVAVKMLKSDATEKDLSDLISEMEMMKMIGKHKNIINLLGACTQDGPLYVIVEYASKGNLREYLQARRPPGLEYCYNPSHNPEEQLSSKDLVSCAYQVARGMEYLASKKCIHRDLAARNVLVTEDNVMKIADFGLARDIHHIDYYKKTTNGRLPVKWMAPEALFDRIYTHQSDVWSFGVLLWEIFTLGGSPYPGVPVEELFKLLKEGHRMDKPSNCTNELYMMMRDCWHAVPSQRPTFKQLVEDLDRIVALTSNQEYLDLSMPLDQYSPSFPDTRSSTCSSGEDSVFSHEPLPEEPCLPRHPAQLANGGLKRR
UniProt P21802, whole entry, looked up: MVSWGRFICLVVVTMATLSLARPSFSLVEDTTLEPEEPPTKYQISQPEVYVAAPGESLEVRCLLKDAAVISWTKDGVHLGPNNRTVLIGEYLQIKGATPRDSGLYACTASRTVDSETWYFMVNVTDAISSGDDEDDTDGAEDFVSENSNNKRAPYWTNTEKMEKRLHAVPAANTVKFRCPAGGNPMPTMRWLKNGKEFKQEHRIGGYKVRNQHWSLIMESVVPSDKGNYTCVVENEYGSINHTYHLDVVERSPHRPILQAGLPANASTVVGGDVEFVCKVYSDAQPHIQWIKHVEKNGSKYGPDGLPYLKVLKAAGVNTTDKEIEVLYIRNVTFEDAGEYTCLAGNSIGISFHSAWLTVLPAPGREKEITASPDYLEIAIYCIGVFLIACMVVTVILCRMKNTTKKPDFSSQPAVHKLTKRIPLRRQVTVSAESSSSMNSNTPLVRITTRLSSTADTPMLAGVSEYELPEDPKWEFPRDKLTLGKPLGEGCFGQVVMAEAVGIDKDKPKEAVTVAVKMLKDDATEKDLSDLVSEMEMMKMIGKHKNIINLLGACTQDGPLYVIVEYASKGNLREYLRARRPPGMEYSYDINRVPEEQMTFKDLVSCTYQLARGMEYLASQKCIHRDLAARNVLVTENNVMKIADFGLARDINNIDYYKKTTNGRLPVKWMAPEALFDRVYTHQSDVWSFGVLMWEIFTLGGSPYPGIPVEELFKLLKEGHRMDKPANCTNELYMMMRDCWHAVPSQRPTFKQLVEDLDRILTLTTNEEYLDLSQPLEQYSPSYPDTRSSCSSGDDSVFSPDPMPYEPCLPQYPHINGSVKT
UniProt P36888, whole entry: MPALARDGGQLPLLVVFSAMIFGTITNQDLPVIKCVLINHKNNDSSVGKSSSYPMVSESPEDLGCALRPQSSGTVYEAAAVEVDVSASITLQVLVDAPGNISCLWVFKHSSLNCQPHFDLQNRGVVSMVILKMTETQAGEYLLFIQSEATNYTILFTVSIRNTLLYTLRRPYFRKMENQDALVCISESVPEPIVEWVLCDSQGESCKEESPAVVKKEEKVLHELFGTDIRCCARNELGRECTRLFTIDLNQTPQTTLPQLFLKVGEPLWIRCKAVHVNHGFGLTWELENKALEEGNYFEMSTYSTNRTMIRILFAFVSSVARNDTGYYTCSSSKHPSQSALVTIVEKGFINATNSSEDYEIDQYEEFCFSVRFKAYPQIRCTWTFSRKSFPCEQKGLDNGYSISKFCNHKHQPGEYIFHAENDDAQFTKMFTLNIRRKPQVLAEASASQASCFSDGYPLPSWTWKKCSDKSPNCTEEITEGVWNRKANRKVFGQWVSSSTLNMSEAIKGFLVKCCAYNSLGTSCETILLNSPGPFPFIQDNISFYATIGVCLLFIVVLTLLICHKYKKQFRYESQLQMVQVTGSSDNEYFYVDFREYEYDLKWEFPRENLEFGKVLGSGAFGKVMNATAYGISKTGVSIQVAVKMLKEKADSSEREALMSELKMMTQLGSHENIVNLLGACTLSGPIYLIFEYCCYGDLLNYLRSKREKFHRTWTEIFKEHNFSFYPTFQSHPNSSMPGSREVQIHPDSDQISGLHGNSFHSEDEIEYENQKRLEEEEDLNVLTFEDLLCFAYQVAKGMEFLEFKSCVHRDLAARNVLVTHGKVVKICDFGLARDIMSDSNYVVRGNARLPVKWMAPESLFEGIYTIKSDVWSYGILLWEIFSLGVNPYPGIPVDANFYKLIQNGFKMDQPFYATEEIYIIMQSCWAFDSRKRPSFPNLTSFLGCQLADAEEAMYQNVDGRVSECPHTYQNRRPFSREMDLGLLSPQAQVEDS
UniProt P06241, whole entry, looked up: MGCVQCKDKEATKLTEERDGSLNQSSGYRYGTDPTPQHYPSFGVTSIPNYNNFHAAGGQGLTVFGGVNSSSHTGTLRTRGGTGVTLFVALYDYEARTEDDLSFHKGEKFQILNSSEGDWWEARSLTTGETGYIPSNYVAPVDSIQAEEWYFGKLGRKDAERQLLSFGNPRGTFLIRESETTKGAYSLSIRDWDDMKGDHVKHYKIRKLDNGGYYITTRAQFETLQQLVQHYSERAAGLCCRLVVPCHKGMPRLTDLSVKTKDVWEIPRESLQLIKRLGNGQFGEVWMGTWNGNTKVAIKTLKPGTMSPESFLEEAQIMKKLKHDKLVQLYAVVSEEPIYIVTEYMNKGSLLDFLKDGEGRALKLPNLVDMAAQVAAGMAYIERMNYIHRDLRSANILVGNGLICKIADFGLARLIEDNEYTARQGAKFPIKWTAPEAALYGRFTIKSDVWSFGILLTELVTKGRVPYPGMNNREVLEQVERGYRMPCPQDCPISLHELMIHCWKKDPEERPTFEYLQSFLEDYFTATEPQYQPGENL
UniProt P49840: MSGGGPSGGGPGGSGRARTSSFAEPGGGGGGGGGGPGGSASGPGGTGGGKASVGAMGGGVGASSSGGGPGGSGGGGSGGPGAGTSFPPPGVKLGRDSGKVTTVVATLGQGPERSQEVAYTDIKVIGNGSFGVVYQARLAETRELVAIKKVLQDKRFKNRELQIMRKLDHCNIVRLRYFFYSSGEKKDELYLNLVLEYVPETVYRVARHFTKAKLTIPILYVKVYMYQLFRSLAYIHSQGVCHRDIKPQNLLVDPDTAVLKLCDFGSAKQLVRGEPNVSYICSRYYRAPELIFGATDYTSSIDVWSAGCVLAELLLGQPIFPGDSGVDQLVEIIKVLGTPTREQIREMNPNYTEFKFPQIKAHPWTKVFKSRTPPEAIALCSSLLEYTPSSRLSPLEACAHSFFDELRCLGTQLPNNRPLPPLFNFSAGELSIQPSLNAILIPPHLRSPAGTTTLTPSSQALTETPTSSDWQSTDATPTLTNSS

Experiments:
Experiment in all cases: kinase-Nluc reporter destabilization hit call (1 = scored as downregulated) (binary); higher = compound decreases kinase abundance
Details in all cases: K562; 2-18 h
EGFR = EGFR (UniProt P00533)
EGFR_G719S = EGFR_G719S (UniProt P00533)
EGFR_G719S_T790M = EGFR_G719S_T790M (UniProt P00533)
EGFR_L718V = EGFR_L718V (UniProt P00533)
EGFR_L858R = EGFR_L858R (UniProt P00533)
EGFR_L861Q = EGFR_L861Q (UniProt P00533)
EGFR_T790M = EGFR_T790M (UniProt P00533)
EPHA2 = EPHA2 (UniProt P29317)
ERBB3 = ERBB3 (UniProt P21860)
[1] = biological target: ERBB4_R711C (clone: ERBB4_mut) (UniProt Q15303)
ERN1 = ERN1 (UniProt O75460)
FGFR1 = FGFR1 (UniProt P11362)
FGFR2 = FGFR2 (UniProt P21802)
FGFR3 = FGFR3 (UniProt P22607)
FGR = FGR (UniProt P09769)
FLT3 = FLT3 (UniProt P36888)
FYN = FYN (UniProt P06241)
GSK3A = GSK3A (UniProt P49840)
HER2 = HER2 (UniProt P04626)
INSRR = INSRR (UniProt P14616)

Compound	kinase-Nluc reporter destabilization hit call (EGFR)	kinase-Nluc reporter destabilization hit call (EGFR_G719S)	kinase-Nluc reporter destabilization hit call (EGFR_G719S_T790M)	kinase-Nluc reporter destabilization hit call (EGFR_L718V)	kinase-Nluc reporter destabilization hit call (EGFR_L858R)	kinase-Nluc reporter destabilization hit call (EGFR_L861Q)	kinase-Nluc reporter destabilization hit call (EGFR_T790M)	kinase-Nluc reporter destabilization hit call (EPHA2)	kinase-Nluc reporter destabilization hit call (ERBB3)	kinase-Nluc reporter destabilization hit call [1]	kinase-Nluc reporter destabilization hit call (ERN1)	kinase-Nluc reporter destabilization hit call (FGFR1)	kinase-Nluc reporter destabilization hit call (FGFR2)	kinase-Nluc reporter destabilization hit call (FGFR3)	kinase-Nluc reporter destabilization hit call (FGR)	kinase-Nluc reporter destabilization hit call (FLT3)	kinase-Nluc reporter destabilization hit call (FYN)	kinase-Nluc reporter destabilization hit call (GSK3A)	kinase-Nluc reporter destabilization hit call (HER2)	kinase-Nluc reporter destabilization hit call (INSRR)
Cc1cccc(-c2nn3c(c2-c2ccnc4ccc(C(N)=O)cc24)CCC3)n1 [Galunisertib] (10 µM)	inactive: 0	inactive: 0	inactive: 0	inactive: 0	inactive: 0	inactive: 0	inactive: 0	inactive: 0	inactive: 0	inactive: 0	inactive: 0	inactive: 0	inactive: 0	inactive: 0	inactive: 0	inactive: 0	inactive: 0	inactive: 0	inactive: 0	inactive: 0
COc1cc2nccc(Nc3cccc(Oc4ccccc4)c3)c2cc1OC (2.5 µM)	inactive: 0	inactive: 0	inactive: 0	inactive: 0	inactive: 0	inactive: 0	inactive: 0	inactive: 0	inactive: 0	inactive: 0	inactive: 0	inactive: 0	inactive: 0	inactive: 0	inactive: 0	inactive: 0	inactive: 0	inactive: 0	inactive: 0	inactive: 0
NC(=O)c1sc2c([N+](=O)[O-])cc(C(F)(F)F)cc2[n+]1[O-] [Cyclapolin 9] (10 µM)	inactive: 0	inactive: 0	inactive: 0	inactive: 0	inactive: 0	inactive: 0	inactive: 0	inactive: 0	inactive: 0	inactive: 0	inactive: 0	inactive: 0	inactive: 0	inactive: 0	inactive: 0	inactive: 0	inactive: 0	inactive: 0	inactive: 0	inactive: 0
O=C(C#Cc1ccccc1)c1cccc([N+](=O)[O-])c1 (10 µM)	inactive: 0	inactive: 0	inactive: 0	inactive: 0	inactive: 0	inactive: 0	inactive: 0	inactive: 0	inactive: 0	inactive: 0	inactive: 0	inactive: 0	inactive: 0	inactive: 0	inactive: 0	inactive: 0	inactive: 0	inactive: 0	inactive: 0	inactive: 0
O=C1OC(COc2ccccc2[N+](=O)[O-])CC1Cc1ccccc1 (stereo not given) (10 µM)	inactive: 0	inactive: 0	inactive: 0	inactive: 0	inactive: 0	inactive: 0	inactive: 0	inactive: 0	inactive: 0	inactive: 0	inactive: 0	inactive: 0	inactive: 0	inactive: 0	inactive: 0	inactive: 0	inactive: 0	inactive: 0	inactive: 0	inactive: 0
COc1cc2nnc(C(N)=O)c(Nc3ccc(C)cc3F)c2cc1N1CCN(CCO)CC1 (2.5 µM)	inactive: 0	inactive: 0	inactive: 0	inactive: 0	inactive: 0	inactive: 0	inactive: 0	inactive: 0	inactive: 0	inactive: 0	inactive: 0	inactive: 0	inactive: 0	inactive: 0	inactive: 0	inactive: 0	inactive: 0	inactive: 0	inactive: 0	inactive: 0
CC(C)(C)S(=O)(=O)c1cc2c(Nc3ccc4scnc4c3)ncnc2cc1OCCOP(=O)(O)O (2 µM)	inactive: 0	inactive: 0	inactive: 0	inactive: 0	inactive: 0	inactive: 0	inactive: 0	inactive: 0	inactive: 0	inactive: 0	inactive: 0	inactive: 0	inactive: 0	inactive: 0	inactive: 0	inactive: 0	inactive: 0	inactive: 0	inactive: 0	inactive: 0
O=c1cc(N2CCOCC2)oc2c(-c3cccc4c3sc3ccccc34)cccc12 (10 µM)	inactive: 0	inactive: 0	inactive: 0	inactive: 0	inactive: 0	inactive: 0	inactive: 0	inactive: 0	inactive: 0	inactive: 0	inactive: 0	inactive: 0	inactive: 0	inactive: 0	inactive: 0	inactive: 0	inactive: 0	inactive: 0	inactive: 0	inactive: 0
CS(=O)(=O)c1cccc(CNc2nc(Nc3ccc4c(c3)CCC(=O)N4)ncc2C(F)(F)F)c1 (10 µM)	inactive: 0	inactive: 0	inactive: 0	inactive: 0	inactive: 0	inactive: 0	inactive: 0	inactive: 0	inactive: 0	inactive: 0	inactive: 0	inactive: 0	inactive: 0	inactive: 0	inactive: 0	inactive: 0	inactive: 0	inactive: 0	inactive: 0	inactive: 0
N#Cc1cc(N2CCC(C(=O)N3N=CC[C@H]3c3cc(F)cc(F)c3)CC2)ncn1 (10 µM)	inactive: 0	inactive: 0	inactive: 0	inactive: 0	inactive: 0	inactive: 0	inactive: 0	inactive: 0	inactive: 0	inactive: 0	inactive: 0	inactive: 0	inactive: 0	inactive: 0	inactive: 0	inactive: 0	inactive: 0	inactive: 0	inactive: 0	inactive: 0
CN1CCN(c2ccc(-n3cc(-c4ccncc4OCC4CCNCC4)cn3)cc2)CC1 [MELK-8a (hydrochloride)] (10 µM)	inactive: 0	inactive: 0	inactive: 0	inactive: 0	inactive: 0	inactive: 0	inactive: 0	inactive: 0	inactive: 0	inactive: 0	inactive: 0	inactive: 0	inactive: 0	inactive: 0	inactive: 0	inactive: 0	inactive: 0	inactive: 0	inactive: 0	inactive: 0
Cc1cccc(CC(=O)N2CCc3c2ccc(-c2cn(C)c4ncnc(N)c24)c3F)n1 (10 µM)	inactive: 0	inactive: 0	inactive: 0	inactive: 0	inactive: 0	inactive: 0	inactive: 0	inactive: 0	inactive: 0	inactive: 0	inactive: 0	inactive: 0	inactive: 0	inactive: 0	inactive: 0	inactive: 0	inactive: 0	inactive: 0	inactive: 0	inactive: 0
Cc1cc(N2CCOCC2)ccc1Nc1nc(NC2CCCCC2)c2[nH]cnc2n1 (10 µM)	inactive: 0	inactive: 0	inactive: 0	inactive: 0	inactive: 0	inactive: 0	inactive: 0	inactive: 0	inactive: 0	inactive: 0	inactive: 0	inactive: 0	inactive: 0	inactive: 0	inactive: 0	inactive: 0	inactive: 0	inactive: 0	inactive: 0	inactive: 0
Cn1cc(C2=C(c3ccc(Cl)cc3Cl)C(=O)NC2=O)c2ccccc21 (10 µM)	inactive: 0	inactive: 0	inactive: 0	inactive: 0	inactive: 0	inactive: 0	inactive: 0	inactive: 0	inactive: 0	inactive: 0	inactive: 0	inactive: 0	inactive: 0	inactive: 0	inactive: 0	inactive: 0	inactive: 0	inactive: 0	inactive: 0	inactive: 0
CNC(=O)CN1CCC(Oc2cc3c(Nc4cccc(Cl)c4F)ncnc3cc2OC)CC1 [Sapitinib] (10 µM)	inactive: 0	inactive: 0	inactive: 0	inactive: 0	inactive: 0	inactive: 0	inactive: 0	inactive: 0	inactive: 0	inactive: 0	inactive: 0	inactive: 0	inactive: 0	inactive: 0	inactive: 0	inactive: 0	inactive: 0	inactive: 0	inactive: 0	inactive: 0
Cn1cnc2c(F)c(Nc3ccc(Br)cc3F)c(C(=O)NOCCO)cc21 [Binimetinib] (10 µM)	inactive: 0	inactive: 0	inactive: 0	inactive: 0	inactive: 0	inactive: 0	inactive: 0	inactive: 0	inactive: 0	inactive: 0	inactive: 0	inactive: 0	inactive: 0	inactive: 0	inactive: 0	inactive: 0	active: 1	inactive: 0	inactive: 0	inactive: 0
COc1cc(Nc2ccnc3ccc(Br)cc23)cc(OC)c1OC (2.5 µM)	inactive: 0	inactive: 0	inactive: 0	inactive: 0	inactive: 0	inactive: 0	inactive: 0	inactive: 0	inactive: 0	inactive: 0	inactive: 0	inactive: 0	inactive: 0	inactive: 0	inactive: 0	inactive: 0	inactive: 0	inactive: 0	inactive: 0	inactive: 0
C=CC(=O)Nc1cccc(Oc2nc(Nc3ccc(N4CCN(C)CC4)cc3OC)ncc2Cl)c1 (10 µM)	inactive: 0	inactive: 0	inactive: 0	inactive: 0	inactive: 0	inactive: 0	inactive: 0	inactive: 0	inactive: 0	inactive: 0	inactive: 0	inactive: 0	inactive: 0	inactive: 0	inactive: 0	inactive: 0	inactive: 0	inactive: 0	active: 1	inactive: 0

2 compounds drawn at random from the list so far:
Compound	kinase-Nluc reporter destabilization hit call (EGFR)	kinase-Nluc reporter destabilization hit call (EGFR_G719S)	kinase-Nluc reporter destabilization hit call (EGFR_G719S_T790M)	kinase-Nluc reporter destabilization hit call (EGFR_L718V)	kinase-Nluc reporter destabilization hit call (EGFR_L858R)	kinase-Nluc reporter destabilization hit call (EGFR_L861Q)	kinase-Nluc reporter destabilization hit call (EGFR_T790M)	kinase-Nluc reporter destabilization hit call (EPHA2)	kinase-Nluc reporter destabilization hit call (ERBB3)	kinase-Nluc reporter destabilization hit call [1]	kinase-Nluc reporter destabilization hit call (ERN1)	kinase-Nluc reporter destabilization hit call (FGFR1)	kinase-Nluc reporter destabilization hit call (FGFR2)	kinase-Nluc reporter destabilization hit call (FGFR3)	kinase-Nluc reporter destabilization hit call (FGR)	kinase-Nluc reporter destabilization hit call (FLT3)	kinase-Nluc reporter destabilization hit call (FYN)	kinase-Nluc reporter destabilization hit call (GSK3A)	kinase-Nluc reporter destabilization hit call (HER2)	kinase-Nluc reporter destabilization hit call (INSRR)
O=C1OC(COc2ccccc2[N+](=O)[O-])CC1Cc1ccccc1 (stereo not given) (10 µM)	inactive: 0	inactive: 0	inactive: 0	inactive: 0	inactive: 0	inactive: 0	inactive: 0	inactive: 0	inactive: 0	inactive: 0	inactive: 0	inactive: 0	inactive: 0	inactive: 0	inactive: 0	inactive: 0	inactive: 0	inactive: 0	inactive: 0	inactive: 0
O=c1cc(N2CCOCC2)oc2c(-c3cccc4c3sc3ccccc34)cccc12 (10 µM)	inactive: 0	inactive: 0	inactive: 0	inactive: 0	inactive: 0	inactive: 0	inactive: 0	inactive: 0	inactive: 0	inactive: 0	inactive: 0	inactive: 0	inactive: 0	inactive: 0	inactive: 0	inactive: 0	inactive: 0	inactive: 0	inactive: 0	inactive: 0
